Data on 39 sequences can be found in paper PMC7862700.

Assay in all cases: DAPPL (digital affinity profiling via proximity ligation, sequencing)
What all share (details): 10 mM Tris-HCl pH 7.5, 50 mM NaCl, 1 mM DTT, 4% glycerol, room temperature, 30 min; GST-TFs on glutathione beads, 16-mer random dsDNA library, 0.1% …; high values mean tight binding; double strand, one strand shown; scale: fold enrichment (6-mer frequency, TF over GST control)

One assay deals with T1, ELK1 (UniProt P19419).
T1 sequence: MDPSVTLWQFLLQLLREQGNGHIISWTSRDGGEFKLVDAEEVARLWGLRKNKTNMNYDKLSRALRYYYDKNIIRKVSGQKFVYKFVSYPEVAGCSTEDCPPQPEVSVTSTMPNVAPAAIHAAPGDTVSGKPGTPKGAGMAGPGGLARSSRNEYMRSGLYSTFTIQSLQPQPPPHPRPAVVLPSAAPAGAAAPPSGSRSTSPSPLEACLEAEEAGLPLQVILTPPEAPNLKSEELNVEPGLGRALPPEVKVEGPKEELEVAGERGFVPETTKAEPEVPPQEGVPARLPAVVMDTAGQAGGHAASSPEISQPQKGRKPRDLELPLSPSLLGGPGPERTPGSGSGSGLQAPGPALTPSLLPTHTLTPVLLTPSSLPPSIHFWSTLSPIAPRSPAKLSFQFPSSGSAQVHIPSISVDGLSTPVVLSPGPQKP

In the next assay the target is T2, ELK3 (UniProt P41970).
T2 sequence: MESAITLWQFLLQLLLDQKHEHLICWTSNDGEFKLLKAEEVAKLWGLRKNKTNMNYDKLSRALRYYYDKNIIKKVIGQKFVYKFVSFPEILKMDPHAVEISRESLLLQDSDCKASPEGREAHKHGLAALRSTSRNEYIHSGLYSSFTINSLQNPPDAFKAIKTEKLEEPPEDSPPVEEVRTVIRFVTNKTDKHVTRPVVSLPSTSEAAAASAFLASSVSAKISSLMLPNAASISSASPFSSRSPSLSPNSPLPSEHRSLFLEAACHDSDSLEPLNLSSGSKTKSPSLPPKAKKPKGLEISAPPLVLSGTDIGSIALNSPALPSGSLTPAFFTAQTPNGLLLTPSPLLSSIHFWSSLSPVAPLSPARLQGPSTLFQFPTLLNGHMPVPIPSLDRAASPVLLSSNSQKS

A further assay concerns the target T3, SPIC (UniProt Q8N5J4).
T3 sequence: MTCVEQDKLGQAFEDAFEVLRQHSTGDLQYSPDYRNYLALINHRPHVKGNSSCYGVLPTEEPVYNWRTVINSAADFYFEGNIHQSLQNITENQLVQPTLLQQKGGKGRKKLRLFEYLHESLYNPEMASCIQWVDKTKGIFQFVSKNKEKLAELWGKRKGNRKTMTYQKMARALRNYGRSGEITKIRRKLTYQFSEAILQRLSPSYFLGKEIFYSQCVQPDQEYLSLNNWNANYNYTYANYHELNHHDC

Another assay concerns the target T4, ETS2 (UniProt P15036).
T4 sequence: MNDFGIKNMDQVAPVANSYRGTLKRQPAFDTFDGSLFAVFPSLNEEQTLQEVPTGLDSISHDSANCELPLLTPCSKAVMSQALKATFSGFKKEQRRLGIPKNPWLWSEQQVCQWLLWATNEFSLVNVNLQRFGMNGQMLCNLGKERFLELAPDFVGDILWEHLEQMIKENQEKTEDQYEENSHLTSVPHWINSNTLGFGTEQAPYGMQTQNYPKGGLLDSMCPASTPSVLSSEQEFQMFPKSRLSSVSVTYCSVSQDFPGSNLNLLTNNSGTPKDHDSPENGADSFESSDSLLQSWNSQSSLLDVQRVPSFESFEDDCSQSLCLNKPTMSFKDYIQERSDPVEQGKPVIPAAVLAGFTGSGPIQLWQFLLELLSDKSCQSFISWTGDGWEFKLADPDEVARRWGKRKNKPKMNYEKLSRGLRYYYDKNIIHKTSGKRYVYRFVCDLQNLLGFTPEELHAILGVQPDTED

The target in the next assay is T5, ETV3 (UniProt P41162-2).
T5 sequence: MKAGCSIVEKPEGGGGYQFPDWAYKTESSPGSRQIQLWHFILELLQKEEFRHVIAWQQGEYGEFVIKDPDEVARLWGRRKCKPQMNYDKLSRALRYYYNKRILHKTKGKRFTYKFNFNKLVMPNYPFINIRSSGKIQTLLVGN

The entries are a selection whose mix differs from that of the whole data set. At the low end of the ranking, values are background and their order means little.

As for AACAGA, the binding signal in the assay with ELK1 is 0.976; with ELK3, 0.981; with SPIC, 0.93; in the assay with ETS2, 0.951.
Regarding ACAAAG, the binding signal in the assay with ELK1 stood at 0.993; with ELK3, 1.04; with SPIC, 0.987; with ETV3, 0.996.
GGCTTT: the binding signal in the assay with ELK1 amounted to 0.959; with SPIC it was 0.994; with ETV3 it was 0.973.
Turning to ATTGAG, the binding signal with ELK1 came out at 1.12; in the assay with ELK3, 0.959; with SPIC, 0.915; in the assay with ETV3 it was 0.992.
As for CACGAC, the binding signal with ELK1 worked out at 1.29; with SPIC it was 1.26; in the assay with ETV3 it was 1.15.
With AAAGCT, the binding signal with ELK1 was 1.09; with SPIC, 0.974; in the assay with ETV3 it was 1.04.
For TTGACG the same measures were 1.16, 0.875 and 0.973.
With ACAAAA, the figures for the binding signal in the assay with ELK1, with SPIC and in the assay with ETV3 were 1.11, 0.979 and 1.13, respectively.
As to TTAGGC, the binding signal came to 0.996 in the assay with ELK1, 0.902 with ELK3, 1.08 in the assay with SPIC and 0.95 in the assay with ETV3.
GACGAC: the results for the binding signal in the assay with ELK1, with SPIC and with ETV3 were 0.912, 0.823 and 0.995, respectively.
Regarding CTTATT, the results for the binding signal with ELK1, with SPIC and with ETV3 were 1.39, 1.62 and 1.31, respectively.
Consider TTTCAA, for which the binding signal with ELK1 came out at 1.23; with SPIC, 1.33; with ETV3 it was 1.31.
For CAGCTA, the binding signal with ELK1 came out at 0.907; in the assay with SPIC, 1.07; with ETV3 it was 0.994.
Regarding GCATCT, the binding signal was 1.02 in the assay with ELK1, 0.925 with ELK3, 0.988 with SPIC and 0.947 with ETV3.
In the case of TCAGCC, the figures for the binding signal with ELK1, with SPIC and with ETV3 were 1.11, 0.822 and 0.924, respectively.
In the case of TCGAAC, the results for the binding signal in the assay with ELK1, with SPIC and in the assay with ETV3 were 1.01, 0.856 and 0.957, respectively.
Consider TAATGG, for which the binding signal was 1.35 in the assay with ELK1, 1.34 in the assay with SPIC and 1.28 with ETV3.
For the sequence ATGCGT, the binding signal was 0.996 with ELK1, 0.937 with ELK3, 1.07 in the assay with SPIC and 0.975 with ETV3.
Turning to CAGTAT, the binding signal amounted to 0.938 with ELK1, 0.98 in the assay with SPIC and 0.936 in the assay with ETV3.
For CCTGAA the same measures were 1.39, 1.28 and 1.4.
For GCTACG the same measures were 1.22, 1.12 and 1.05.
On to AGCGCT, for which the binding signal with ELK1 turned out to be 0.96; with SPIC, 0.897; with ETV3 it was 1.01.
TGTCAA: the binding signal in the assay with ELK1 was determined as 0.981; with ELK3, 0.998; in the assay with SPIC, 0.886; with ETV3, 1.08.
Turning to GTTAGC, the binding signal in the assay with ELK1 was found to be 0.957; with ELK3, 0.864; with SPIC, 0.93; in the assay with ETV3 it was 0.863.
For the sequence ACGCGT, the binding signal amounted to 0.919 with ELK1, 0.951 with ELK3, 0.985 with SPIC and 0.947 with ETV3.
On to CGAATT, for which the binding signal is 1.1 with ELK1, 1.25 with SPIC and 1.22 with ETV3.
CGCACG: the binding signal was found to be 0.993 with ELK1, 0.96 with SPIC and 0.998 in the assay with ETV3.
On to GCGATA, for which the binding signal with ELK1 is 0.977; with SPIC it was 0.912; in the assay with ETV3, 0.994.
For TGGGCA, the binding signal in the assay with ELK1 amounted to 0.97; in the assay with SPIC, 0.928; in the assay with ETV3 it was 0.985.
As for ATCGCT, the binding signal with ELK1 was determined as 1.09; with ELK3, 1.1; in the assay with SPIC, 0.985; with ETV3, 1.05.
With TCACGG, the binding signal with ELK1 amounted to 0.976; with SPIC it was 1; in the assay with ETV3 it was 0.97.
As to AGGGCT, the results for the binding signal in the assay with ELK1, with SPIC and with ETV3 were 0.989, 0.984 and 1.06, respectively.
With GCCTGG, the binding signal amounted to 0.991 with ELK1, 1.01 with ELK3, 0.771 with SPIC and 0.929 with ETV3.
For CGAACG, the binding signal with ELK1 was found to be 0.907; in the assay with ELK3, 0.984; with SPIC, 1.11; in the assay with ETV3, 0.905.
On to CACAAG, for which the binding signal with ELK1 was found to be 1.17; with SPIC it was 1.09; with ETV3 it was 1.16.
In the case of AAAGAT, the binding signal was 1.21 with ELK1, 1.22 in the assay with SPIC and 1.28 with ETV3.
GTCTCG: the binding signal was 1.37 in the assay with ELK1, 1.37 with ELK3, 1.21 in the assay with SPIC and 1.33 in the assay with ETV3.
For GAATGC, the binding signal with ELK1 was determined as 0.968; in the assay with ELK3, 0.911; in the assay with SPIC it was 0.954; in the assay with ETV3, 0.947.
Consider AAAGTC, for which the values for the binding signal with ELK1, with SPIC and with ETV3 were 0.985, 0.895 and 0.988, respectively.
